Laboratory results reported in the supplement of paper PMC11006884.
The entries are a selection whose mix differs from that of the whole data set. The data scatter; read single values as rough.

Chains of the proteins cited; added tags and fusions are not shown. Lines headed by an entry give the natural chain unless they say otherwise; changes in a name come on top.
UniProt Q9Y277: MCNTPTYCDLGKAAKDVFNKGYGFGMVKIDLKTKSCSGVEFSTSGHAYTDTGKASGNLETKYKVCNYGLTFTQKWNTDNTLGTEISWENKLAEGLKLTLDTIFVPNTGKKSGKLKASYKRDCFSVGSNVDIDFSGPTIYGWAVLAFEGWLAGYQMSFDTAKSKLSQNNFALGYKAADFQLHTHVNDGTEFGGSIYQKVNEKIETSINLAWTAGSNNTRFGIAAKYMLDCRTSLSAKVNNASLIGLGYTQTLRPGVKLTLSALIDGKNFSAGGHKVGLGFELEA
UniProt Q9UIQ6, whole entry: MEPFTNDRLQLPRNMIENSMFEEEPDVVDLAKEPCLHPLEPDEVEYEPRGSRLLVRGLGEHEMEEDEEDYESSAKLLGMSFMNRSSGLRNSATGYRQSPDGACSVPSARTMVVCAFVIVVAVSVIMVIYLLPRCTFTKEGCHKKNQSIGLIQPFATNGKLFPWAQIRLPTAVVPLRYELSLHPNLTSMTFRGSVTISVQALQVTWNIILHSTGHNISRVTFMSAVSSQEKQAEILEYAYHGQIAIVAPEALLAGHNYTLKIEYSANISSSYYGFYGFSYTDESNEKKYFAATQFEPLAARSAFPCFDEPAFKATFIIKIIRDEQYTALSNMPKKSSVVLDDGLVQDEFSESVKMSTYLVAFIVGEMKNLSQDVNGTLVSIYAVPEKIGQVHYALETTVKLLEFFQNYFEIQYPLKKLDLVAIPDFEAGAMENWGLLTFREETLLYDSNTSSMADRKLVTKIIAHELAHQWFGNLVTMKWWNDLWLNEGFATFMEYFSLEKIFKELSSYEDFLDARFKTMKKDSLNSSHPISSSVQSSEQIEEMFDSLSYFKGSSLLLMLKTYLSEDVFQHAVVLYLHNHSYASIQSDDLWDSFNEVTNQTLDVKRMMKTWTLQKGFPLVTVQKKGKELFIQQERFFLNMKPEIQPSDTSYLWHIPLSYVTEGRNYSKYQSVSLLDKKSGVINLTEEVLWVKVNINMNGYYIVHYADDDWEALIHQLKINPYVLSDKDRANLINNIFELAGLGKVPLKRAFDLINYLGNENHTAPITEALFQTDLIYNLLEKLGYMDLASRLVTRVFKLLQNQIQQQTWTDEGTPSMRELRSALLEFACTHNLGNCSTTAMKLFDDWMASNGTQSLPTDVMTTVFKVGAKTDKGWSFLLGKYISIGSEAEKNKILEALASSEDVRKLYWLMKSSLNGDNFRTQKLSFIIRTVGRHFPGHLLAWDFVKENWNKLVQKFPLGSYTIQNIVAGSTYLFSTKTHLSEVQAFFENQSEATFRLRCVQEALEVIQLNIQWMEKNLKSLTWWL
UniProt Q9UQR0: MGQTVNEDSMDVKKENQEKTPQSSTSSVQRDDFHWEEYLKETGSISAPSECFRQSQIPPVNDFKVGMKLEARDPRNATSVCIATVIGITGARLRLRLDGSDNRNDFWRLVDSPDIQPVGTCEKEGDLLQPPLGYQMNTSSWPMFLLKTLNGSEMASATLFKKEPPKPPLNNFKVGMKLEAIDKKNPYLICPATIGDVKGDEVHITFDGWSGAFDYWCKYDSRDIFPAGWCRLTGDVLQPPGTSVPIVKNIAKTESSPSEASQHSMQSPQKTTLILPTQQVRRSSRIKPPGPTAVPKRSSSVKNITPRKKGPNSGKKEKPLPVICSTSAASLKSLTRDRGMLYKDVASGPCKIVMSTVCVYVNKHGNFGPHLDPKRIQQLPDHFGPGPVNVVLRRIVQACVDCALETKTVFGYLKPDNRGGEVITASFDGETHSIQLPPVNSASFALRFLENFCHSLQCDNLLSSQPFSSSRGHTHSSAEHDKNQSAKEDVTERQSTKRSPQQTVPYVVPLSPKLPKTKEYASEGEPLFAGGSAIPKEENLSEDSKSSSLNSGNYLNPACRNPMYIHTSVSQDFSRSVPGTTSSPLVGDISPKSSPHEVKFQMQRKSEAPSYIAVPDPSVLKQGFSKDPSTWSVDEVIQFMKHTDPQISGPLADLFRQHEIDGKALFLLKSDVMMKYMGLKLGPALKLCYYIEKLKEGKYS
UniProt Q9UIV1, whole entry: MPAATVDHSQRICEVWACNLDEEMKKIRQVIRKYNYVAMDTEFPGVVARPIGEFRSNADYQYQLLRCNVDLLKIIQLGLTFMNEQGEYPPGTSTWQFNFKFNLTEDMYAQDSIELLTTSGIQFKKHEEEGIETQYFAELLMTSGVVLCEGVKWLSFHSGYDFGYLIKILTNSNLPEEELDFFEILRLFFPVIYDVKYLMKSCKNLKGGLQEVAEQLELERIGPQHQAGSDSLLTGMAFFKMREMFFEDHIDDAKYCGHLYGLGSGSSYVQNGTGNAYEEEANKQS
UniProt Q9UJF2: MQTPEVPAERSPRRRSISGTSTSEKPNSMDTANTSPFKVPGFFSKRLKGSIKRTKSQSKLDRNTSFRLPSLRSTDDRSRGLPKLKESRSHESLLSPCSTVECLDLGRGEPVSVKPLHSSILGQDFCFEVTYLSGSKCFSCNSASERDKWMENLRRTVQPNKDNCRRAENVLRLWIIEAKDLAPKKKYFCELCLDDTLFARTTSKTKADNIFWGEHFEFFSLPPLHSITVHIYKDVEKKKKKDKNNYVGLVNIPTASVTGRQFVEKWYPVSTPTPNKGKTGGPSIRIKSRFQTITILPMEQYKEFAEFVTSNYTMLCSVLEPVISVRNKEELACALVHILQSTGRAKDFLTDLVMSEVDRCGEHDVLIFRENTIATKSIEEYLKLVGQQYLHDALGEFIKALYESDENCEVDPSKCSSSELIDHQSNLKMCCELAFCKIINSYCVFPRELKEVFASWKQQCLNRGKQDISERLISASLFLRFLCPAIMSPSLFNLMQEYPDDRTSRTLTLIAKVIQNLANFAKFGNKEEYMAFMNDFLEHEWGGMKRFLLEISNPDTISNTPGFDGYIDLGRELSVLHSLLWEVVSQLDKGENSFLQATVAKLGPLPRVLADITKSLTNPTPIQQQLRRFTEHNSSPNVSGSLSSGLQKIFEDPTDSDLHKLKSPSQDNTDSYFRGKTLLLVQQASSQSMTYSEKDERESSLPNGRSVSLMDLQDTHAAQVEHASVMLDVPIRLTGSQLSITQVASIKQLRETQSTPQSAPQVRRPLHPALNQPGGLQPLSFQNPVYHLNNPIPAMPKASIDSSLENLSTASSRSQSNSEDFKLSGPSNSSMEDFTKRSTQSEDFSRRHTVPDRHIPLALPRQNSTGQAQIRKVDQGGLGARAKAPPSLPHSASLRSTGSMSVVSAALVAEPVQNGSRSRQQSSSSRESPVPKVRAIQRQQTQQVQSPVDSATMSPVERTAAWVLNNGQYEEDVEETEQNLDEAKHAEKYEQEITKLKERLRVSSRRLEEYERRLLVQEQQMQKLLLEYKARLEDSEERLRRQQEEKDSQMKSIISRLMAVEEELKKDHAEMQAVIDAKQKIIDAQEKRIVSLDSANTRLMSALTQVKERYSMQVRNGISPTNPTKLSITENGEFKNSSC
UniProt Q9ULK4: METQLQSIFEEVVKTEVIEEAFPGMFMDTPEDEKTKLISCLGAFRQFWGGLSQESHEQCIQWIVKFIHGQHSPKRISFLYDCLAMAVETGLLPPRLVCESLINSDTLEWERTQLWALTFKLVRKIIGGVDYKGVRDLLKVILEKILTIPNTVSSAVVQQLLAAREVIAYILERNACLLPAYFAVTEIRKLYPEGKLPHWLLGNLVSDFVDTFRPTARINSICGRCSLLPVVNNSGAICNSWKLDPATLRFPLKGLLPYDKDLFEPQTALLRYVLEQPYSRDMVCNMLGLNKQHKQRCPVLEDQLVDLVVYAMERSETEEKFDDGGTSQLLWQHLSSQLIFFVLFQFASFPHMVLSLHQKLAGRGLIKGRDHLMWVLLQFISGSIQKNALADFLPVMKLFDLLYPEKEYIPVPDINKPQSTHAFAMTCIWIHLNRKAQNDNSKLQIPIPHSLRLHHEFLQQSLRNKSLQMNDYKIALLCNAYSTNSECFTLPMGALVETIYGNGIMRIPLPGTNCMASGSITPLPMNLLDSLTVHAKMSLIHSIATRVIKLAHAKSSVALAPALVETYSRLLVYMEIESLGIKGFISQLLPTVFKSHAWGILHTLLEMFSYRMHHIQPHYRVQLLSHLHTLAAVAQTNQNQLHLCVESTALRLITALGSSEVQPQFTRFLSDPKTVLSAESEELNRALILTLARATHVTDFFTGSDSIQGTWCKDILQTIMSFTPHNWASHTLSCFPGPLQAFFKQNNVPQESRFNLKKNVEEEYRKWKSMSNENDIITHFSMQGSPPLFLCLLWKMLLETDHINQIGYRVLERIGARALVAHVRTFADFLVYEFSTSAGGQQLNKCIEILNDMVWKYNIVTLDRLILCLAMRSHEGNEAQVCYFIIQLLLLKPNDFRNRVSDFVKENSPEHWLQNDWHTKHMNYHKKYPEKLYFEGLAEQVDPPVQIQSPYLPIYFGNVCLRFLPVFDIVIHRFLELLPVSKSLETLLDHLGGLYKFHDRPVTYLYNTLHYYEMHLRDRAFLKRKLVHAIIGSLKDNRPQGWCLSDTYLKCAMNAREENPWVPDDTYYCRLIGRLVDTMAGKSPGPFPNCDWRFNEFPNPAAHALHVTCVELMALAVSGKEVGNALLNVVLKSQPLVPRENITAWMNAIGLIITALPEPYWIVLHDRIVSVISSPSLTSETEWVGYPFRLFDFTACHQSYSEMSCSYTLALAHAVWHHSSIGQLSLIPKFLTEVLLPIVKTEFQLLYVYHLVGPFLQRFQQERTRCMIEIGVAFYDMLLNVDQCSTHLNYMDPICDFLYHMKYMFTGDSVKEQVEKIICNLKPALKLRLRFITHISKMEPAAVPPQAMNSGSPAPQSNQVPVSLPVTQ
UniProt Q9UK61: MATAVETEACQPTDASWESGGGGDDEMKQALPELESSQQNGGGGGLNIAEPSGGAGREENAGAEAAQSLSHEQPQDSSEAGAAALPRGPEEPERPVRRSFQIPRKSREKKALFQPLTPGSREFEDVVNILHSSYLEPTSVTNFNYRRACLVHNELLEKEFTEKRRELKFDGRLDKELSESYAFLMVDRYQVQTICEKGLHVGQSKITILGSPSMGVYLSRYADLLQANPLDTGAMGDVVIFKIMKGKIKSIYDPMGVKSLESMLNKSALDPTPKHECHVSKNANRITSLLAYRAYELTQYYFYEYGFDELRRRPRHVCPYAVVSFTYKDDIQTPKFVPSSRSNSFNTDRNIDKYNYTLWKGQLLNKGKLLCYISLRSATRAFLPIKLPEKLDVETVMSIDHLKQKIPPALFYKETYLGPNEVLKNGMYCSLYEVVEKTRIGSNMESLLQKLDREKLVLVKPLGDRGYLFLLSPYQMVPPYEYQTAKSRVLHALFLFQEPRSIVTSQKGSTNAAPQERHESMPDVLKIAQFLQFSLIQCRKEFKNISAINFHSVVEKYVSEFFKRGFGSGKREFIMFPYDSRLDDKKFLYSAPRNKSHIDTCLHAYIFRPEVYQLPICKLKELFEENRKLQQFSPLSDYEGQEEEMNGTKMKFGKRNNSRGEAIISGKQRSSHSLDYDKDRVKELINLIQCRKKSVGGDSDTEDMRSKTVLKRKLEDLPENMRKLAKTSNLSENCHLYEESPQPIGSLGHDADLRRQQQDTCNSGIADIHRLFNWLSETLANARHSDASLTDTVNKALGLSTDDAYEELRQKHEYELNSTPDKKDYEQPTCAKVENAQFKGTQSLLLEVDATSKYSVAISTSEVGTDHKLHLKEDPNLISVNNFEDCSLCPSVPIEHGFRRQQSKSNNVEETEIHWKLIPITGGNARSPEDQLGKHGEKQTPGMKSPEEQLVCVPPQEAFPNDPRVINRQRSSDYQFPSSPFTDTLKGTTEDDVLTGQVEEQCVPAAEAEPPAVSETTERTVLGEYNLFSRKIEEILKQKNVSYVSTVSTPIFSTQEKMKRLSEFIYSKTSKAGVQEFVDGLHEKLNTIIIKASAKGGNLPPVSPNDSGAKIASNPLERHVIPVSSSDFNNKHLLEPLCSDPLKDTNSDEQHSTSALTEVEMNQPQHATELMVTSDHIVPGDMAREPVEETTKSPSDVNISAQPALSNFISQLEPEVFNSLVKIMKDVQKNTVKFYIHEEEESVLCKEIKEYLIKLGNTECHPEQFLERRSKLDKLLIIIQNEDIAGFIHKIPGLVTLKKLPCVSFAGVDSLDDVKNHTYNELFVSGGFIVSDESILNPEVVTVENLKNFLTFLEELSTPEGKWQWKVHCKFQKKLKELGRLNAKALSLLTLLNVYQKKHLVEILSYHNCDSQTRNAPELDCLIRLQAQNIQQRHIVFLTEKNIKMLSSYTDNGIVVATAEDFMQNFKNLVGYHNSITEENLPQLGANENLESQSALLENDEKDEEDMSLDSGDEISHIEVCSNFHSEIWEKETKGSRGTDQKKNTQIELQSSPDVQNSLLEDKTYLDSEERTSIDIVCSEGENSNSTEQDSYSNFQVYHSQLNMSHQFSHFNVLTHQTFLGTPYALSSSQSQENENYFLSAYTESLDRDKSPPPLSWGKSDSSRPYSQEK

Compound: COC(=O)/C=C/c1ccccc1 [methyl cinnamate]
Assay: log2 ratio of iodoacetamide-alkyne labeling of the cysteine site, DMSO over compound (competition); higher = stronger covalent engagement of the cysteine by the compound, active = 1 or more
Settings: 500 µM; treatment time 1 h; system: HEK293T cell lysate
Procedure, shortened: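 HEK293T lysate at 2 mg/mL was treated with vehicle or electrophile (500 µM) for 1 h at ambient temperature, then labelled with iodoacetamide alkyne (1 h), clicked to sCIP-TMT reagents, pooled, digested with trypsin overnight at 37 °C, enriched on streptavidin and eluted with acid. Peptides were analysed by Orbitrap Eclipse LC-MS/MS with FAIMS and quantified in FragPipe, using duplicate channels and three replicates, with cysteines quantified in only one replicate excluded. The log2 competition ratio for each cysteine is the mean control-channel reporter intensity divided by the mean compound-channel reporter intensity.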

log2 ratio of iodoacetamide-alkyne labeling, inactive:
PA2G4 C179 (UniProt Q9UQ80) -0.0874
VPS51 C269 (UniProt Q9UID3) 0.671
LUC7L2 C97 (UniProt Q9Y383) -0.353
TBC1D24 C89 (UniProt Q9ULP9) -0.164
BAG5 C118 (UniProt Q9UL15) -0.335
CHORDC1 C86 (UniProt Q9UHD1) 0.471
TLN1 C1023 (UniProt Q9Y490) -0.137
NUP50 C165 (UniProt Q9UKX7) 0.143
MRPL11 C50 (UniProt Q9Y3B7) 0.342
TIMELESS C606 (UniProt Q9UNS1) 0.422
VDAC3 C36 (UniProt Q9Y277) 0.191
EXOSC1 C40 (UniProt Q9Y3B2) 0.0537
DIS3 C213 (UniProt Q9Y2L1) 0.165
BAG5 C213 (UniProt Q9UL15) -0.204
LNPEP C35 (UniProt Q9UIQ6) -0.117
SCML2 C324 (UniProt Q9UQR0) 0.314
TTF2 C785 (UniProt Q9UNY4) -0.119
UniProt Q9UK39_C302 0.162
CNOT7 C18 (UniProt Q9UIV1) 0.16
ACIN1 C691 (UniProt Q9UKV3) 0.259
BAZ1B C994 (UniProt Q9UIG0) 0.0301
UniProt Q9Y2L5_C265 0.251
HECTD1 C436 (UniProt Q9ULT8) 0.0927
NOC2L C585 (UniProt Q9Y3T9) 0.217
DERA C118 (UniProt Q9Y315) -0.178
RASAL2 C333 (UniProt Q9UJF2) -0.0963
HECTD1 C2415 (UniProt Q9ULT8) 0.0163
DDX20 C524 (UniProt Q9UHI6) 0.299
TPX2 C364 (UniProt Q9ULW0) 0.521
HOOK1 C432 (UniProt Q9UJC3) 0.264
BAZ2A C943 (UniProt Q9UIF9) 0.388
ZMYND8 C196 (UniProt Q9ULU4) -0.149
CHORDC1 C59 (UniProt Q9UHD1) -0.096
HBS1L C31 (UniProt Q9Y450) 0.455
USP24 C1628 (UniProt Q9UPU5) 0.159
MED23 C1043 (UniProt Q9ULK4) 0.486
UniProt Q9UK61_C429 0.0982

Fetched one by one from the list above, two records:
log2 ratio of iodoacetamide-alkyne labeling, inactive:
TTF2 C785 (UniProt Q9UNY4) -0.119
USP24 C1628 (UniProt Q9UPU5) 0.159
